Measured values from the supplement of paper PMC8728848.
The list shows a part of the results.

What was measured:
Assay in all cases: glycan array binding signal (z-score within array); higher = stronger binding
Settings in all cases: glycan notation: IUPAC condensed, linker removed; mutation: D224N
[1] = target: GlcNAc(a1-3)Gal(b1-4)GlcNAc
Summary of the method: (§1)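 Glycan array binding is given as a within-array Z-score, which can be read as non-binding when negative. The arrays, 3228 of them, came from the Consortium for Functional Glycomics database and were retained only where the protein sequence was available. Z-scores were averaged across arrays of the same protein sequence at different concentrations or buffers and across linkers.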

[2] = target: GlcNAc(a1-4)Gal(b1-3)GlcNAc
Summary of the method: as §1

[3] = target: GlcNAc(a1-4)Gal(b1-4)GalNAc
Summary of the method: as §1

[4] = target: GlcNAc(a1-4)Gal(b1-4)GlcNAc
Summary of the method: as §1

[5] = target: GlcNAc(a1-4)Gal(b1-4)GlcNAc(b1-3)Gal(b1-4)Glc
Summary of the method: as §1

[6] = target: GlcNAc(a1-4)Gal(b1-4)GlcNAc(b1-3)Gal(b1-4)GlcNAc
Summary of the method: as §1

[7] = target: GlcNAc(a1-4)Gal(b1-4)GlcNAc(b1-3)Gal(b1-4)GlcNAc(b1-3)Gal(b1-4)GlcNAc
Summary of the method: as §1

[8] = target: GlcNAc(a1-4)Gal(b1-4)GlcNAc(b1-3)Gal(b1-4)[Fuc(a1-3)]GlcNAc(b1-3)Gal(b1-4)[Fuc(a1-3)]GlcNAc
Summary of the method: as §1

[9] = target: GlcNAc(a1-6)Gal(b1-4)GlcNAc
Summary of the method: as §1

[10] = target: GlcNAc(b1-2)Gal(b1-3)GalNAc
Summary of the method: as §1

[11] = target: GlcNAc(b1-2)Man(a1-3)[GlcNAc(b1-2)Man(a1-6)]Man(b1-4)GlcNAc(b1-4)GlcNAc
Summary of the method: as §1

[12] = target: GlcNAc(b1-2)Man(a1-3)[GlcNAc(b1-2)Man(a1-6)]Man(b1-4)GlcNAc(b1-4)[Fuc(a1-6)]GlcNAc
Summary of the method: as §1

[13] = target: GlcNAc(b1-2)Man(a1-3)[GlcNAc(b1-4)][GlcNAc(b1-2)Man(a1-6)]Man(b1-4)GlcNAc(b1-4)GlcNAc
Summary of the method: as §1

[14] = target: GlcNAc(b1-2)Man(a1-3)[GlcNAc(b1-4)][GlcNAc(b1-2)Man(a1-6)]Man(b1-4)GlcNAc(b1-4)[Fuc(a1-6)]GlcNAc
Summary of the method: as §1

[15] = target: GlcNAc(b1-2)[GlcNAc(b1-4)]Man(a1-3)[GlcNAc(b1-2)Man(a1-6)]Man(b1-4)GlcNAc(b1-4)GlcNAc
Summary of the method: as §1

[16] = target: GlcNAc(b1-2)[GlcNAc(b1-4)]Man(a1-3)[GlcNAc(b1-4)][GlcNAc(b1-2)Man(a1-6)]Man(b1-4)GlcNAc(b1-4)GlcNAc
Summary of the method: as §1

[17] = target: GlcNAc(b1-2)[GlcNAc(b1-4)]Man(a1-3)[GlcNAc(b1-4)][GlcNAc(b1-2)[GlcNAc(b1-6)]Man(a1-6)]Man(b1-4)GlcNAc(b1-4)GlcNAc
Summary of the method: as §1

[18] = target: GlcNAc(b1-2)[GlcNAc(b1-4)]Man(a1-3)[GlcNAc(b1-4)][GlcNAc(b1-2)[GlcNAc(b1-6)]Man(a1-6)]Man(b1-4)GlcNAc(b1-4)[Fuc(a1-6)]GlcNAc
Summary of the method: as §1

[19] = target: GlcNAc(b1-2)[GlcNAc(b1-6)]Man(a1-6)[GlcNAc(b1-2)Man(a1-3)]Man(b1-4)GlcNAc(b1-4)GlcNAc
Summary of the method: as §1

[20] = target: GlcNAc(b1-2)[GlcNAc(b1-6)]Man(a1-6)[GlcNAc(b1-2)Man(a1-3)]Man(b1-4)GlcNAc(b1-4)[Fuc(a1-6)]GlcNAc
Summary of the method: as §1

[21] = target: GlcNAc(b1-2)[GlcNAc(b1-6)]Man(a1-6)[GlcNAc(b1-4)][GlcNAc(b1-2)Man(a1-3)]Man(b1-4)GlcNAc(b1-4)GlcNAc
Summary of the method: as §1

GlcNAc(b1-3)Fuc = target: GlcNAc(b1-3)Fuc
Summary of the method: as §1

GlcNAc(b1-3)Gal = target: GlcNAc(b1-3)Gal
Summary of the method: as §1

[22] = target: GlcNAc(b1-3)Gal(b1-3)GalNAc
Summary of the method: as §1

GlcNAc(b1-3)Gal(b1-4)Glc = target: GlcNAc(b1-3)Gal(b1-4)Glc
Summary of the method: as §1

[23] = target: GlcNAc(b1-3)Gal(b1-4)GlcNAc
Summary of the method: as §1

[24] = target: GlcNAc(b1-3)Gal(b1-4)GlcNAc(b1-2)Man(a1-3)[GlcNAc(b1-3)Gal(b1-4)GlcNAc(b1-2)Man(a1-6)]Man(b1-4)GlcNAc(b1-4)GlcNAc
Summary of the method: as §1

[25] = target: GlcNAc(b1-3)Gal(b1-4)GlcNAc(b1-2)Man(a1-3)[GlcNAc(b1-3)Gal(b1-4)GlcNAc(b1-2)Man(a1-6)]Man(b1-4)GlcNAc(b1-4)[Fuc(a1-6)]GlcNAc
Summary of the method: as §1

[26] = target: GlcNAc(b1-3)Gal(b1-4)GlcNAc(b1-2)[GlcNAc(b1-3)Gal(b1-4)GlcNAc(b1-6)]Man(a1-6)[GlcNAc(b1-3)Gal(b1-4)GlcNAc(b1-2)Man(a1-3)]Man(b1-4)GlcNAc(b1-4)GlcNAc
Summary of the method: as §1

[27] = target: GlcNAc(b1-3)Gal(b1-4)GlcNAc(b1-3)Gal(b1-4)GlcNAc
Summary of the method: as §1

[28] = target: GlcNAc(b1-3)Gal(b1-4)GlcNAc(b1-3)Gal(b1-4)GlcNAc(b1-2)Man(a1-3)[GlcNAc(b1-3)Gal(b1-4)GlcNAc(b1-3)Gal(b1-4)GlcNAc(b1-2)Man(a1-6)]Man(b1-4)GlcNAc(b1-4)GlcNAc
Summary of the method: as §1

[29] = target: GlcNAc(b1-3)Gal(b1-4)GlcNAc(b1-3)Gal(b1-4)GlcNAc(b1-2)Man(a1-3)[GlcNAc(b1-3)Gal(b1-4)GlcNAc(b1-3)Gal(b1-4)GlcNAc(b1-2)Man(a1-6)]Man(b1-4)GlcNAc(b1-4)[Fuc(a1-6)]GlcNAc
Summary of the method: as §1

[30] = target: GlcNAc(b1-3)Gal(b1-4)GlcNAc(b1-3)Gal(b1-4)GlcNAc(b1-2)[GlcNAc(b1-3)Gal(b1-4)GlcNAc(b1-3)Gal(b1-4)GlcNAc(b1-6)]Man(a1-6)[GlcNAc(b1-3)Gal(b1-4)GlcNAc(b1-3)Gal(b1-4)GlcNAc(b1-2)Man(a1-3)]Man(b1-4)GlcNAc(b1-4)[Fuc(a1-6)]GlcNAc
Summary of the method: as §1

[31] = target: GlcNAc(b1-3)Gal(b1-4)GlcNAc(b1-3)Gal(b1-4)GlcNAc(b1-3)Gal(b1-4)GlcNAc(b1-2)Man(a1-3)[GlcNAc(b1-3)Gal(b1-4)GlcNAc(b1-3)Gal(b1-4)GlcNAc(b1-3)Gal(b1-4)GlcNAc(b1-2)Man(a1-6)]Man(b1-4)GlcNAc(b1-4)GlcNAc
Summary of the method: as §1

[32] = target: GlcNAc(b1-3)Gal(b1-4)GlcNAc(b1-3)Gal(b1-4)GlcNAc(b1-3)Gal(b1-4)GlcNAc(b1-2)Man(a1-3)[GlcNAc(b1-3)Gal(b1-4)GlcNAc(b1-3)Gal(b1-4)GlcNAc(b1-3)Gal(b1-4)GlcNAc(b1-2)Man(a1-6)]Man(b1-4)GlcNAc(b1-4)[Fuc(a1-6)]GlcNAc
Summary of the method: as §1

[33] = target: GlcNAc(b1-3)Gal(b1-4)GlcNAc(b1-3)Gal(b1-4)GlcNAc(b1-3)Gal(b1-4)GlcNAc(b1-2)[GlcNAc(b1-3)Gal(b1-4)GlcNAc(b1-3)Gal(b1-4)GlcNAc(b1-3)Gal(b1-4)GlcNAc(b1-6)]Man(a1-6)[GlcNAc(b1-3)Gal(b1-4)GlcNAc(b1-3)Gal(b1-4)GlcNAc(b1-3)Gal(b1-4)GlcNAc(b1-2)Man(a1-3)]Man(b1-4)GlcNAc(b1-4)[Fuc(a1-6)]GlcNAc
Summary of the method: as §1

[34] = target: GlcNAc(b1-3)Gal(b1-4)GlcNAc(b1-3)Gal(b1-4)GlcNAc(b1-3)Gal(b1-4)GlcNAc(b1-3)Gal(b1-4)GlcNAc(b1-2)Man(a1-3)[GlcNAc(b1-3)Gal(b1-4)GlcNAc(b1-3)Gal(b1-4)GlcNAc(b1-3)Gal(b1-4)GlcNAc(b1-3)Gal(b1-4)GlcNAc(b1-2)Man(a1-6)]Man(b1-4)GlcNAc(b1-4)GlcNAc
Summary of the method: as §1

[35] = target: GlcNAc(b1-3)Gal(b1-4)GlcNAc(b1-3)Gal(b1-4)GlcNAc(b1-3)Gal(b1-4)GlcNAc(b1-3)Gal(b1-4)GlcNAc(b1-2)Man(a1-3)[GlcNAc(b1-3)Gal(b1-4)GlcNAc(b1-3)Gal(b1-4)GlcNAc(b1-3)Gal(b1-4)GlcNAc(b1-3)Gal(b1-4)GlcNAc(b1-2)Man(a1-6)]Man(b1-4)GlcNAc(b1-4)[Fuc(a1-6)]GlcNAc
Summary of the method: as §1

B1: a L Fucosidase (Thermotoga maritima) (protein)
chain: MASMKPRYKPDWESLREHTVPKWFDKAKFGIFIHWGIYSVPGWATPTGELGKVPMDAWFFQNPYAEWYENSLRIKESPTWEYHVKTYGENFEYEKFADLFTAEKWDPQEWADLFKKAGAKYVIPTTKHHDGFCLWGTKYTDFNSVKRGPKRDLVGDLAKAVREAGLRFGVYYSGGLDWRFTTEPIRYPEDLSYIRPNTYEYADYAYKQVMELVDLYLPDVLWNNMGWPEKGKEDLKYLFAYYYNKHPEGSVNDRWGVPHWDFKTAEYHVNYPGDLPGYKWEFTRGIGLSFGYNRNEGPEHMLSVEQLVYTLVDVVSKGGNLLLNVGPKGDGTIPDLQKERLLGLGEWLRKYGDAIYGTSVWERCCAKTEDGTEIRFTRKCNRIFVIFLGIPTGEKIVIEDLNLSAGTVRHFLTGERLSFKNVGKNLEITVPKKLLETDSITLVLEAVEE
Question: What does the source list for B1?
Answer: glycan array binding signal (z-score) [1]: -0.247; glycan array binding signal (z-score) [2]: -0.713; glycan array binding signal (z-score) [3]: 0.151; glycan array binding signal (z-score) [4]: -0.293; glycan array binding signal (z-score) [5]: -1.1; glycan array binding signal (z-score) [6]: 0.042; glycan array binding signal (z-score) [7]: 0.079; glycan array binding signal (z-score) [8]: 0.08; glycan array binding signal (z-score) [9]: -0.871; glycan array binding signal (z-score) [10]: 0.179; glycan array binding signal (z-score) [11]: -0.295; glycan array binding signal (z-score) [12]: 0.433; glycan array binding signal (z-score) [13]: 0.937; glycan array binding signal (z-score) [14]: 0.291; glycan array binding signal (z-score) [15]: -0.603; glycan array binding signal (z-score) [16]: -0.01; glycan array binding signal (z-score) [17]: -0.084; glycan array binding signal (z-score) [18]: -0.522; glycan array binding signal (z-score) [19]: -0.079; glycan array binding signal (z-score) [20]: -0.472; glycan array binding signal (z-score) [21]: -0.18; glycan array binding signal (z-score) (GlcNAc(b1-3)Fuc): -0.333; glycan array binding signal (z-score) (GlcNAc(b1-3)Gal): -0.908; glycan array binding signal (z-score) [22]: 0.146; glycan array binding signal (z-score) (GlcNAc(b1-3)Gal(b1-4)Glc): -0.248; glycan array binding signal (z-score) [23]: -0.35; glycan array binding signal (z-score) [24]: 0.512; glycan array binding signal (z-score) [25]: 1.23; glycan array binding signal (z-score) [26]: -0.595; glycan array binding signal (z-score) [27]: -0.67; glycan array binding signal (z-score) [28]: 0.079; glycan array binding signal (z-score) [29]: 1.68; glycan array binding signal (z-score) [30]: 0.296; glycan array binding signal (z-score) [31]: 0.301; glycan array binding signal (z-score) [32]: 3.94; glycan array binding signal (z-score) [33]: 0.033; glycan array binding signal (z-score) [34]: -0.204; glycan array binding signal (z-score) [35]: 0.076
